The values that follow come from PubChem BioAssay AID2685 (National Center for Advancing Translational Sciences (NCATS), 2010).

This experiment can be described thus: qHTS Assay for Lipid Storage Modulators in Drosophila S3 Cells.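 On cell number change: cells counted by Cell Tracker Red CMTPX staining in the red channel.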 The settings on record: BODIPY lipid droplet fluorescence, 18-24 h; for cell number change: measured here: cell count max response, cells fed with added oleic acid. The method in brief: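 Drosophila S3 cells got compounds at several concentrations plus oleic acid (400 uM solution). Laser-scanning cytometry with 488 nm excitation read lipid droplets at 500-530 nm and cells at 575-640 nm. Percent activity was relative to 20 uM Triacsin C.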

Where [1] appears, read: measured here: cell number channel AC50, cells fed with added oleic acid.
The mark [2] stands for this setting: measured here: lipid fluorescence (Fed channel) AC50, cells fed with added oleic acid.

Molecules are shown by their SMILES. The list shows a part of the results. These are further read-outs of the screen, such as a control signal, another cell line or another target. No call is given for them. Most of these compounds were active or inconclusive in the main read-out, so they are no random draw. The note in brackets gives the kind of curve behind each potency; many fits are weak.

Turning to `Nn1c(Cc2ccc(F)cc2)n[nH]c1=S`, the cell number change is 10.6%.

As usually defined, the AC50 is the concentration giving half of the maximal activity seen. Turning to `Cc1ccc(-n2c(C)c(C)c3c(NCCCO)ncnc32)cc1`, the cell number change came to 42.6%. For the same molecule, the AC50 under setting [1] was 16.4 µM [rising, partial curve, poor fit].

Consider `CN(C)CCNC(=O)c1ccc2c(c1)N(Cc1ccc(F)cc1)CCS2`, for which the cell number change came out at 23.7%. Besides, the AC50 under setting [2] is 6.51 µM [rising, single point].

In the case of `Cn1c(=O)c(NC2CCCCC2)c2c3c(cccc31)C(=O)c1ccccc1-2`, the cell number change is -94.3%. Moreover, the AC50 under setting [1] is 10.3 µM [falling, partial curve]. Under setting [2], the half-maximal activity concentration (AC50) is 6.51 µM [falling, full curve].

On to `CCCc1cc(=O)oc2cc(OCC(=O)NCCc3c[nH]c4ccc(OC)cc34)ccc12`, for which the half-maximal activity concentration (AC50) under setting [2] was 0.13 µM [falling, full curve, poor fit].

Consider `COC(=O)C1=C(C)NC(=S)NC1c1ccco1` (stereo unspecified), for which the cell number change was -7.45%.

On to `CC(=O)N1c2ccc(S(=O)(=O)N3CCC(C(=O)NCc4ccc(N(C)C)cc4)CC3)cc2CC1C` (stereo unspecified), for which the cell number change is 6.59%.

On to `CCOC(=O)c1oc2ccc(S(=O)(=O)N3CCC(C)CC3)cc2c1C`, for which the cell number change was 18.4%. Also, under setting [2], the AC50 is 3.66 µM [rising, single point].

Take `Cc1ccc(C(C)C)cc1OCC(=O)Nc1ccc(-n2cnnn2)cc1`: the cell number change is -8.57%. In addition, under setting [2], the AC50 was 2.06 µM [falling, single point].

Consider `COC(=O)COc1ccc(S(=O)(=O)NCCC2=CCCCC2)cc1C`, for which the cell number change is -17.6%.

With `O=C(CN1CCC(NC(=O)Nc2ccccc2)CC1)Nc1cccc([N+](=O)[O-])c1`, the cell number change was 7.66%. Besides, the AC50 under setting [2] was 0.58 µM [rising, single point].

Consider `Cc1cc(=O)oc2cc(OCCSCCN3CCOCC3)ccc12`, for which the cell number change is -0.667%.

Consider `CC(C)(C)c1ccc(-c2nnc(SCC(=O)NC3CC3)o2)cc1`, for which the cell number change is -4.26%. Besides, the AC50 under setting [2] was 23.1 µM [falling, single point].

On to `O=C(CCCN1C(=O)/C(=C\c2ccccc2)SC1=S)Nc1ccc(O)cc1`, for which the cell number change was -31.5%. For the same molecule, the AC50 under setting [1] is 18.4 µM [falling, single point].

In the case of `Cc1cccc(C(=O)Nc2ccc3ccccc3c2)c1`, the cell number change was 1.92%. For the same molecule, the AC50 under setting [2] is 3.66 µM [falling, single point].

On to `O=[N+]([O-])c1cccc(NC2=NCCC2)c1`, for which the concentration at half-maximal activity (AC50) under setting [2] was 4.11 µM [falling, single point].

Take `Cc1cc(C)n(-c2ccc(C(=O)Nc3cc(S(=O)(=O)N(C)C)ccc3Cl)cc2)n1`: the cell number change stood at 1.26%. For the same molecule, under setting [2], the AC50 is 0.0731 µM [rising, full curve, poor fit].

With `O=C(Nn1c(-c2ccccc2)nc2ccccc2c1=O)C1CCC1`, the cell number change was found to be 9.92%. Besides, under setting [2], the AC50 was 3.66 µM [falling, full curve, poor fit].

As for `CCN(c1ccc(NC(=O)c2ccc(Cl)nc2)cc1)C(C)C`, the cell number change is -25.9%.

On to `Cc1ccc(OCC(=O)OC(C)CN(C)Cc2ccccc2)cc1` (stereo unspecified), for which the cell number change was 2.01%. The AC50 under setting [2] was 0.00651 µM [falling, full curve, poor fit].

Regarding `O=C1CSC(=S)N1/N=C/c1c(F)cccc1F`, the cell number change was -14.3%.

On to `Cc1cc(C)c(OCCCCCNCCO)c(C)c1`, for which the AC50 under setting [2] was 6.51 µM [falling, single point].

Take `CC1CCCC2(C1)NC(=S)c1c(sc3c1CCCC3)N2` (stereo unspecified): the cell number change is -15%. The AC50 under setting [2] is 6.51 µM [rising, single point].

Turning to `Cc1cccc(Nc2nc(NCc3ccco3)nc(N)c2[N+](=O)[O-])c1`, the cell number change is -18.9%. The AC50 under setting [2] was 18.4 µM [falling, single point].

On to `CN(CC(=O)Nc1ccccc1Br)Cc1nc2ccccc2c(=O)[nH]1`, for which the cell number change amounted to 0.136%. Further, the AC50 under setting [2] was 6.51 µM [falling, single point].

On to `Cc1[nH]n(-c2ccccc2)c(=O)c1N=Nc1ccc(C#N)cc1`, for which the cell number change is -12.1%. For the same molecule, the AC50 under setting [2] was 6.51 µM [falling, single point].

Consider `CCOc1[nH]n(-c2ccc(Cl)cc2)c(=O)c1C=NCC(=O)OC`, for which the cell number change was 12%.

Regarding `CC(CCc1ccccc1)NC(=O)C1CCN(C(=O)c2sccc2-n2cccc2)CC1` (stereo unspecified), the cell number change worked out at 11%.

As for `N#Cc1nc(COc2cccc(Cl)c2)oc1NCCN1CCOCC1`, the AC50 under setting [1] is 3.26 µM [rising, single point].

On to `Cc1ccc(CNC(=O)C(OC(=O)c2ccco2)C(C)C)cc1` (stereo unspecified), for which the cell number change came to 36.2%. For the same molecule, under setting [1], the AC50 was 9.2 µM [rising, partial curve]. In addition, the AC50 under setting [2] is 20.6 µM [rising, partial curve].

As for `O=C(Nc1ccccc1N1CCOCC1)c1ccc2c(c1)OCCO2`, the cell number change is -41.9%. Further, the AC50 under setting [1] was 16.4 µM [falling, single point]. In addition, under setting [2], the AC50 was 23.1 µM [falling, partial curve].

In the case of `COc1cc2[nH]c(=S)nc(NCc3cccc(Cl)c3)c2cc1OC`, the cell number change is -8.33%. The half-maximal activity concentration (AC50) under setting [2] is 1.16 µM [falling, full curve].

For the molecule `CCN(CC)C(=O)CSc1nc(O)cc(=O)n1C`, the cell number change was 7.37%. Further, under setting [2], the AC50 is 29.1 µM [rising, single point].

With `Cc1c(C)c2c(OCC(=O)NCc3ccccn3)cc3c(c2oc1=O)CCC(C)(C)O3`, the cell number change was -12.3%. For the same molecule, under setting [2], the AC50 was 0.731 µM [falling, full curve].

As to `CC(C)c1csc(CN2CCCC(CNC(=O)c3cccc4ccccc34)C2)n1` (stereo unspecified), the cell number change is -31.1%. The AC50 under setting [1] is 23.1 µM [falling, single point]. In addition, the AC50 under setting [2] was 10.3 µM [falling, partial curve, poor fit].

Consider `O=C(COC(=O)c1cnccn1)c1ccc(OC(=O)c2ccccc2)cc1`, for which the cell number change is -62.9%. Besides, the AC50 under setting [1] was 16.4 µM [falling, single point].

As to `COCc1c(C(=O)OCC(=O)Nc2ccc(OC(F)F)cc2)oc2ccccc12`, the cell number change amounted to 18.2%. Further, the AC50 under setting [2] was 1.64 µM [falling, partial curve].

In the case of `CCOc1nc(N2CCOCC2)nc(C)c1[N+](=O)[O-]`, the cell number change turned out to be 0.856%. Further, the AC50 under setting [1] is 0.651 µM [rising, partial curve, poor fit]. Besides, under setting [2], the concentration at half-maximal activity (AC50) was 4.11 µM [rising, partial curve, poor fit].

As for `COc1ccc(NC(=O)Cc2ccsc2)c(OC)c1`, the cell number change came to 17.4%. Moreover, the AC50 under setting [2] is 18.4 µM [rising, partial curve, poor fit].

As for `O=C(NC(=S)Nc1ccc(S(=O)(=O)Nc2nccs2)cc1)c1ccc(F)c(F)c1`, the AC50 under setting [2] is 0.164 µM [falling, full curve, poor fit].

In the case of `Cc1occc1-c1nnc(SCC(=O)Nc2ccc(F)cc2)n1Cc1ccccc1`, the cell number change was -2.66%. For the same molecule, under setting [2], the AC50 is 1.46 µM [rising, partial curve].

Turning to `COc1ccc(N2CCN(C(CNS(=O)(=O)c3cc(F)ccc3F)c3cccnc3)CC2)cc1` (stereo unspecified), the cell number change is 277%. The AC50 under setting [1] was 25.9 µM [rising, partial curve]. Further, the AC50 under setting [2] is 29.1 µM [rising, partial curve].

For `CC(=O)c1sc(NC(=O)COc2c(C)cc(Cl)cc2C)nc1C`, the cell number change was 32.6%. Under setting [1], the AC50 is 0.13 µM [rising, full curve].

For the molecule `O=C(C1CC1)N1N=C(c2ccccc2)CC1(O)C(F)(F)F` (stereo unspecified), the cell number change was -27.3%. Moreover, under setting [2], the AC50 was 29.1 µM [falling, single point].

Regarding `Brc1ccccc1-c1nnc2sc(-c3ccc4c(c3)OCCO4)nn12`, the cell number change is 76.8%. Further, the AC50 under setting [1] was 18.4 µM [rising, partial curve]. Also, the AC50 under setting [2] was 6.51 µM [rising, single point].

`Cc1cc(C)cc(N(CCC#N)C(=O)COC(=O)c2ccccc2SCC(=O)N2CCCC2)c1`: the cell number change is 40.8%. Under setting [1], the AC50 was 6.51 µM [rising, partial curve].

With `COc1cccc(CNC(=O)Cn2c(=O)c3cccn3c3ccccc32)c1`, the cell number change is 101%. Besides, the AC50 under setting [1] is 23.1 µM [rising, partial curve, poor fit]. Also, under setting [2], the AC50 is 29.1 µM [rising, single point].

Turning to `Cc1ccc(C)c(N2CCN(C(=O)CC3Sc4ccccc4NC3=O)CC2)c1` (stereo unspecified), the cell number change was -0.891%. Under setting [2], the concentration at half-maximal activity (AC50) was 6.51 µM [falling, single point].

With `O=C1NC(=O)C2(COC(c3ccccc3Cl)OC2)S1` (stereo unspecified), the cell number change was 2.06%. Under setting [2], the half-maximal activity concentration (AC50) is 1.16 µM [rising, single point].

As to `CC(C)(NC(=O)c1cc(Cl)c2ccccc2c1O)C(=O)O`, the cell number change worked out at 7%. The AC50 under setting [2] was 29.1 µM [falling, single point].

For the molecule `N#CCC(=O)Nc1ccc(C(=O)OCC(=O)N=c2sccn2Cc2ccccc2Cl)cc1`, the AC50 by setting is: under setting [1], 6.51 µM [rising, single point]; under setting [2], 6.51 µM [rising, single point].

For `COc1cccc(NC(=O)c2cnc[nH]2)c1`, the cell number change came out at 47.7%. Besides, the AC50 under setting [1] is 8.2 µM [rising, single point].

For `COC(=O)c1ccc(C)c(NS(=O)(=O)c2ccc3c(c2)OCCO3)c1`, the AC50 under setting [1] is 5.8 µM [rising, partial curve, poor fit].

Turning to `CC(=O)Nc1ccc(S(=O)(=O)Nc2cccc(-c3csc(C)n3)c2)cc1`, the cell number change was -8%. The AC50 under setting [2] is 0.00461 µM [falling, full curve, poor fit].

With `O=C(CN1C(=O)CCC1=O)NCC12CC3CC(CC(C3)C1)C2`, the AC50 runs as follows: under setting [1], 1.64 µM [falling, partial curve, poor fit]; under setting [2], 6.51 µM [falling, single point].

Turning to `CN(Cc1ccccc1)C(=O)COc1cc(=O)n(C)c2ccccc12`, the cell number change was determined as 1.05%. Also, the AC50 under setting [2] was 0.00411 µM [rising, full curve, poor fit].

Take `CCCCN(C)CC(O)Cn1cc(/C=C/C(=O)c2ccc(C)cc2)c2ccccc21` (stereo unspecified): the cell number change is -39.2%. Further, the half-maximal activity concentration (AC50) under setting [1] was 29.1 µM [falling, single point]. Also, under setting [2], the AC50 was 29.1 µM [falling, single point].

With `Cc1csc(NC(=O)c2cccc(C)c2C)n1`, the cell number change is -17.3%. Besides, the half-maximal activity concentration (AC50) under setting [2] is 0.00731 µM [falling, full curve, poor fit].

For the molecule `O=c1c2ccccc2c(C=Nc2cccc(S(=O)(=O)NC3=NCCCCC3)c2)c(O)n1Cc1ccccc1`, the cell number change was 17.9%. Moreover, under setting [2], the AC50 was 18.4 µM [rising, single point].

`CSCC[C@H](NC(=O)Nc1ccc(C)cc1C)C(=O)O`: the cell number change is -16%. In addition, the AC50 under setting [2] was 4.11 µM [falling, full curve, poor fit].

For the molecule `COc1cc(C(=O)N2C(=O)c3cccc(N)c3C2=O)cc(OC)c1OC`, the cell number change is 25.1%. Further, under setting [2], the AC50 is 32.6 µM [rising, single point].
